This note sets out measurements from US11150255B2, “Additive channels” (Emulate Inc., priority 2016, dated 2021).

Entries after “also recorded” stand apart in the source; their conditions may differ. Where a name gives a salt, the structure may show the parent alone.

The data set deals with re-calcified human blood effluent. Put plainly: On-chip anticoagulation of outflowing blood through the anticoagulant port. As to conditions: sodium citrate introduced through the anticoagulant port vs none.

Consider `O=C(O)CC(O)(CC(=O)O)C(=O)O` [sodium citrate], for which the “state of blood collected from the effluent” value is “allows samples to flow freely; also recorded: soluble (not clotted) blood”.
